From publication doi:10.1101/2023.03.27.534346

Biological target: T1, 53BP1-V5 fusion protein (endogenous TP53BP1 locus with a biallelic C-terminal V5-epitope tag) (human (endogenous in hTERT-RPE1)), Q12888
T1 chain: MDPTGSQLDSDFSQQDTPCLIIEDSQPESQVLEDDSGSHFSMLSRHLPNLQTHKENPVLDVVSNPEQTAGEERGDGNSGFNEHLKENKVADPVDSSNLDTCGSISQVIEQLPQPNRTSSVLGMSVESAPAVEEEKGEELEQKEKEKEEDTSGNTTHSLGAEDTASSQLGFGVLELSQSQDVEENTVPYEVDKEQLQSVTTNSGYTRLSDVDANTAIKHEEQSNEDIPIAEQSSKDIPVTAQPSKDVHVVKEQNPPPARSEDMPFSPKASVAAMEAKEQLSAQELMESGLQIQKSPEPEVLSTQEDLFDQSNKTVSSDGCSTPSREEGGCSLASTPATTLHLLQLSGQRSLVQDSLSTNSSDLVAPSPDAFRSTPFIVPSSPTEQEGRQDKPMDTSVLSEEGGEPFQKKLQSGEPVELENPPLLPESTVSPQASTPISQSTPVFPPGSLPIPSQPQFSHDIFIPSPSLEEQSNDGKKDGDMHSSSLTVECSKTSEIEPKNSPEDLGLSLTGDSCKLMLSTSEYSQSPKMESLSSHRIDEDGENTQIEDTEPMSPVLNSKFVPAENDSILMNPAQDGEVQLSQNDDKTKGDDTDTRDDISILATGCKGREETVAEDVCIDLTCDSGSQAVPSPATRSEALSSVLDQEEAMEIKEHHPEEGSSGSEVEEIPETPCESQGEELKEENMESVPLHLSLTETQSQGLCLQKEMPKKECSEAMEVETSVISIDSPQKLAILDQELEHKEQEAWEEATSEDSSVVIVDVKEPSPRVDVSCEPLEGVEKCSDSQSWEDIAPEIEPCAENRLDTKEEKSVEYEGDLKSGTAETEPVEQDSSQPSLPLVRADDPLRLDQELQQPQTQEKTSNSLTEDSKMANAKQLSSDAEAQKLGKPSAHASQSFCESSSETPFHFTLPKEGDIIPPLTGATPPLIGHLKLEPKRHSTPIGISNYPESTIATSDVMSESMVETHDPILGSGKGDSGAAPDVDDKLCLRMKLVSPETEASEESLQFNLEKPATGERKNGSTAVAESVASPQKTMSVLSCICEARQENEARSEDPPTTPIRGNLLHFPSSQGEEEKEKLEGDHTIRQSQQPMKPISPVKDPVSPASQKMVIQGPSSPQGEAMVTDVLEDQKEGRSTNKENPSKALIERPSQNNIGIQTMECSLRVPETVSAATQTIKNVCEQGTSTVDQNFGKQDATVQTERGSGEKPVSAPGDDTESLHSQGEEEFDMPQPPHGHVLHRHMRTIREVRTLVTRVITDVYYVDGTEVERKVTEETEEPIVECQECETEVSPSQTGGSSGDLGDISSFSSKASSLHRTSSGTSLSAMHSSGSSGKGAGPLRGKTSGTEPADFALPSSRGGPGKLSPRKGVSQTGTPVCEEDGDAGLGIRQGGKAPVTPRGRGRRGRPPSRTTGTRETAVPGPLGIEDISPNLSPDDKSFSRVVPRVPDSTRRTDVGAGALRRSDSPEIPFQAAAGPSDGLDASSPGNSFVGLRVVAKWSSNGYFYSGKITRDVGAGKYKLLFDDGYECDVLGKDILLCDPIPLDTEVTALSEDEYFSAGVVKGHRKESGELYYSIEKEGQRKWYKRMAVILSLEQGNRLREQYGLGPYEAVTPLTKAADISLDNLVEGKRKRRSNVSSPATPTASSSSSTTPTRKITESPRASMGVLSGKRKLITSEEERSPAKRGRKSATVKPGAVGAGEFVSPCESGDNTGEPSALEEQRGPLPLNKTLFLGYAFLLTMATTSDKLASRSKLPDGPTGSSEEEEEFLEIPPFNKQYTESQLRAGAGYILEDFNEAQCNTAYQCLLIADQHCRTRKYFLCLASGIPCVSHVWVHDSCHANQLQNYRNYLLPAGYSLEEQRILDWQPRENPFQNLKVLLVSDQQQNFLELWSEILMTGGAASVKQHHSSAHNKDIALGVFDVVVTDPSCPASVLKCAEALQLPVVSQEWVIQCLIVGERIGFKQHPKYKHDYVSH
Assay: affinity purification with mass spectrometry
Conditions: remark: other sources report otherwise

B1: USP28 (ubiquitin-specific protease), Q96RU2 1-1077 (enzyme)
chain: MTAELQQDDAAGAADGHGSSCQMLLNQLREITGIQDPSFLHEALKASNGDITQAVSLLTDERVKEPSQDTVATEPSEVEGSAANKEVLAKVIDLTHDNKDDLQAAIALSLLESPKIQADGRDLNRMHEATSAETKRSKRKRCEVWGENPNPNDWRRVDGWPVGLKNVGNTCWFSAVIQSLFQLPEFRRLVLSYSLPQNVLENCRSHTEKRNIMFMQELQYLFALMMGSNRKFVDPSAALDLLKGAFRSSEEQQQDVSEFTHKLLDWLEDAFQLAVNVNSPRNKSENPMVQLFYGTFLTEGVREGKPFCNNETFGQYPLQVNGYRNLDECLEGAMVEGDVELLPSDHSVKYGQERWFTKLPPVLTFELSRFEFNQSLGQPEKIHNKLEFPQIIYMDRYMYRSKELIRNKRECIRKLKEEIKILQQKLERYVKYGSGPARFPLPDMLKYVIEFASTKPASESCPPESDTHMTLPLSSVHCSVSDQTSKESTSTESSSQDVESTFSSPEDSLPKSKPLTSSRSSMEMPSQPAPRTVTDEEINFVKTCLQRWRSEIEQDIQDLKTCIASTTQTIEQMYCDPLLRQVPYRLHAVLVHEGQANAGHYWAYIYNQPRQSWLKYNDISVTESSWEEVERDSYGGLRNVSAYCLMYINDKLPYFNAEAAPTESDQMSEVEALSVELKHYIQEDNWRFEQEVEEWEEEQSCKIPQMESSTNSSSQDYSTSQEPSVASSHGVRCLSSEHAVIVKEQTAQAIANTARAYEKSGVEAALSEVMLSPAMQGVILAIAKARQTFDRDGSEAGLIKAFHEEYSRLYQLAKETPTSHSDPRLQHVLVYFFQNEAPKRVVERTLLEQFADKNLSYDERSISIMKVAQAKLKEIGPDDMNMEEYKKWHEDYSLFRKVSVYLLTGLELYQKGKYQEALSYLVYAYQSNAALLMKGPRRGVKESVIALYRRKCLLELNAKAASLFETNDDHSVTEGINVMNELIIPCIHLIINNDISKDDLDAIEVMRNHWCSYLGQDIAENLQLCLGEFLPRLLDPSAEIIVLKEPPTIRPNSPYDLCSRFAAVMESIQGVSTVTVK
binding: binds

These are yes or no findings as the source states them, for the method shown. In cells and extracts the contact can be indirect. Here binding means that the protein was enriched with, or labelled near, the bait; the list need not be complete. Sequences can lack the tags named with a protein.
